Results of single-concentration screens

Chains of the proteins cited; added tags and fusions are not shown. Residues count along the entry.
UniProt I6X8D2, whole entry: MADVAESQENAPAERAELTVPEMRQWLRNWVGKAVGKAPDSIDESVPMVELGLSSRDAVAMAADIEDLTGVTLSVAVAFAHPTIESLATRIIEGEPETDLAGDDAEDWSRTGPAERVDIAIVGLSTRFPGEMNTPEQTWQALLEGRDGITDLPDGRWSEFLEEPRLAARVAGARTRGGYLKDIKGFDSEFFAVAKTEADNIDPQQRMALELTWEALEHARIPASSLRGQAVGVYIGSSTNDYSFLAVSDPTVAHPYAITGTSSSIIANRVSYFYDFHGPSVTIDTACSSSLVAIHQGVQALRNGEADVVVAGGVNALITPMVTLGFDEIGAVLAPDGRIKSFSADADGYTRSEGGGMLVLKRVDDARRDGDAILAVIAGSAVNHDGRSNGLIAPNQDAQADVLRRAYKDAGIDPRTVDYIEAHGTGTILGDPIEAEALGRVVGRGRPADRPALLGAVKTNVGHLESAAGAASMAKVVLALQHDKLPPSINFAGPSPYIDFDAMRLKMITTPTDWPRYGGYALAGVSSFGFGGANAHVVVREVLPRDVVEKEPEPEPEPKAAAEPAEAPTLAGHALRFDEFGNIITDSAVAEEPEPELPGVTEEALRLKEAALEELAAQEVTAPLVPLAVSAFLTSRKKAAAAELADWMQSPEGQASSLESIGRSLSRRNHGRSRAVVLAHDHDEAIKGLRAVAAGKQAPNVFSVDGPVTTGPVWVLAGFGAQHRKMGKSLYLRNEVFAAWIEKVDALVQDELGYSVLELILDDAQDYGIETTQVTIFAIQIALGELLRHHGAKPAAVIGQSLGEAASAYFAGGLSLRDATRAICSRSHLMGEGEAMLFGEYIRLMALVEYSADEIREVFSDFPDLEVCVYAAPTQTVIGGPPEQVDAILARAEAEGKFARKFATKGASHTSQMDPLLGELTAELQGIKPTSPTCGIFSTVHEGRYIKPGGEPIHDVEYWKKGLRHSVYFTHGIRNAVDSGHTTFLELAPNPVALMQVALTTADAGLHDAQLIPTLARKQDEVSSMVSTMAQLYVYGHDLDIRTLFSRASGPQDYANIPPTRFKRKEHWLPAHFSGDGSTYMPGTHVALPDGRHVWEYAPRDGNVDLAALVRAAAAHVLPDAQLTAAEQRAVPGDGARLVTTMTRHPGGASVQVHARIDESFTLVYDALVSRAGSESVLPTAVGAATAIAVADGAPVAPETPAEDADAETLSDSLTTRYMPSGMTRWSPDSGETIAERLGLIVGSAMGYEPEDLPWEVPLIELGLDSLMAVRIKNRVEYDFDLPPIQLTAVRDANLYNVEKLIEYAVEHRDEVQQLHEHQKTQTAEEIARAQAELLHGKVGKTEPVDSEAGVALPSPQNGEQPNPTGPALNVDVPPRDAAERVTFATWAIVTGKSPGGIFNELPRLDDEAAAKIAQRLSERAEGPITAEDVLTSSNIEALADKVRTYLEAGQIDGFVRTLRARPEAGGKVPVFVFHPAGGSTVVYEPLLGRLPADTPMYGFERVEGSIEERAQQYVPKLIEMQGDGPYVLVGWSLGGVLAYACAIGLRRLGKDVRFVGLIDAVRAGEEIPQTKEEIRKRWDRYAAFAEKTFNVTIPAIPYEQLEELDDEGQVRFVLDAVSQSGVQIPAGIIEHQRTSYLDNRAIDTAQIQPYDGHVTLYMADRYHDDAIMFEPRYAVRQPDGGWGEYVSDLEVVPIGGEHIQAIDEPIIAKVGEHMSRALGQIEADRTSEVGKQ
UniProt A4I591, 1-473: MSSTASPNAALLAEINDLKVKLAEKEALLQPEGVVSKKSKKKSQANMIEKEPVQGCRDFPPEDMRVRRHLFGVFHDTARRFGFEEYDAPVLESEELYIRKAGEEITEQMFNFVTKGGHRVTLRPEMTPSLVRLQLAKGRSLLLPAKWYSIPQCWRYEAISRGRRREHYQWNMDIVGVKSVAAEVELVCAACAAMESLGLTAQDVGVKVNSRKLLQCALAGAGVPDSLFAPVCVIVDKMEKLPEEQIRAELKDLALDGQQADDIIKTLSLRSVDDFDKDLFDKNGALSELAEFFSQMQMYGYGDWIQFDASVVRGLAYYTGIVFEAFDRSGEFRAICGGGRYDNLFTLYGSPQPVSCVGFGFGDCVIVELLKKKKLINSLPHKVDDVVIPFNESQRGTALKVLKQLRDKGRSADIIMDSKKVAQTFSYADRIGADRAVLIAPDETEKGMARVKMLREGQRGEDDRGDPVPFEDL

Measurements from “University of Dundee, Small-Polar-MMV Screening Library” (2021), ChEMBL document CHEMBL3988442.

Results are given as percent effect. How 0% and 100% were set is not recorded. Most values in the screen are low, and negative values occur. The compounds are a random part of those screened.

Pks13 thioesterase: 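Polyketide synthase Pks13, Mycobacterium tuberculosis (UniProt I6X8D2). Enzyme assay of the thioesterase domain of polyketide synthase 13; the read-out is not stated. Concentration: 30 µM. The record gives no direction; the compounds picked for IC50 retests had high values, so higher reads as stronger inhibition. Size under these conditions: about 67,000 compounds, about 300 of them at 50% or above in at least one test.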
LiHisRS: 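Enzyme assay of histidyl-tRNA synthetase; the read-out is not stated. Target: Histidine-tRNA ligase, Leishmania infantum (UniProt A4I591). Tested at 30 µM. Higher reads as stronger inhibition (inferred: compounds with an IC50 in retests scored well above the rest). The assay is labelled LdHisRS but filed under L. infantum. Of about 69,000 compounds tested this way, about 410 (0.6%) reached 50% or more in at least one test.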

| SMILES | Pks13 thioesterase | LiHisRS |
|---|---|---|
| `CN(C)c1nc2c(c(N(C)Cc3n[nH]c4c3CCCCC4)n1)CCNC2` | -16.71 | 22.95 |
| `CN1CCCC(CCC(=O)NCCCn2ncc3ccccc32)C1` (stereo not given) | -35.29 | -1.266 |
| `COCC1CN(CC2CC2)Cc2nccn2C1` (stereo not given) | -9.775 | 21.1 |
| `CCN1CCN(C(=O)Cn2ncc3c2c(C)nn3C(C)C)CC1` | -11.97 | 9.735 |
| `O=C(Cc1csc(-c2ccco2)n1)N1CCN(CCO)CC1` | -4.227 | 8.108 |
| `CC(C)COc1cncc(N(C)C2CCN(c3ncccn3)CC2)n1` | -5.111 | 14.16 |
| `O=C1CCC2(CCN(c3cccc(C(F)(F)F)n3)CC2)CN1CCO` | -28.31 | 23.08 |
| `N#Cc1ccccc1CC1CCCS(=O)(=O)C1` (stereo not given) | -10.08 | 16.23 |
| `Cc1cc(NC(=O)CNc2cccc(OC(F)F)c2C)n(C)n1` | 11.04 | 0 |
| `Cc1nc(C2CCCN(C(=O)c3cnc(C)s3)C2)no1` (stereo not given) | -15.43 | 20.55 |
| `Cc1n[nH]c2c1C(c1ccncc1)SCC(=O)N2` (stereo not given) | -36.23 | 11.96 |
| `Fc1cnc(N2CC[C@@H](N3CCOCC3)[C@@H]2Cc2ccncc2)nc1` | -11.77 | 4.202 |
| `CN(C)S(=O)(=O)N1CC[C@]2(C[C@H](OCc3ccccn3)CO2)C1` | -27.13 | 22 |
| `CSCCN1C(=O)CC(C)(c2ccc(Br)cc2)C1=O` (stereo not given) | -24.51 | 3.797 |
| `Cc1ncsc1C(=O)OCC1CCN(c2ccccc2)C1` (stereo not given) | 30.18 | 22.22 |
| `Cc1ccc(C)c(OC2CCN(C(=O)NCC(=O)N3CCCC3)CC2)c1` | -7.724 | 17.39 |
| `O=C(C1CC(=O)N(C2CCCC2)C1)N1CCN(CCn2cccc2)CC1` (stereo not given) | 1.035 | 20.39 |
| `COCCC(=O)N1CCCC1c1csc(Nc2ccccn2)n1` (stereo not given) | -14.45 | 4.348 |
| `CC(C)NC(=O)[C@@H]1CN(Cc2nccs2)C[C@H]2OCC[C@H]21` | -15.07 | -43 |
| `COc1ccc(C(=O)NC[C@H]2COCc3nc4cc(C)ccc4n32)cc1` | -19.39 | 22.97 |
| `CN1CCN(Cc2cn3c(n2)CN(Cc2cccc(F)c2)CC3)CC1` | -2.748 | 9.901 |
| `COc1cccc(CN2CCN(CC(C)C)C(=O)C2C)c1O` (stereo not given) | -4.51 | 98.92 |
| `Cc1nn(C)c(N(C)C)c1CNCc1ccc(OCC(N)=O)cc1` | -13.39 | 22.97 |
| `Clc1cc(CN2CCCN3CCCC3C2)c2ncccc2c1` (stereo not given) | -33.13 | 62.86 |
| `O=C(CN1C(=O)CCC1=O)NCCc1nc(C2CC2)cc(C(F)(F)F)n1` | 35.91 | 19.57 |
| `CCCn1cnc2c1CN(S(=O)(=O)c1ccc(F)cc1)[C@H](C(=O)OC)C2` | -5.919 | 29.73 |
| `Cc1noc(C)c1CN1CC2(CCCCN2c2cncnc2)CC1=O` (stereo not given) | 19.5 | 5.263 |
| `CSCCC(NC(=O)c1ccc2ccccc2n1)C(=O)O` (stereo not given) | 16.22 | -9.333 |
| `CC(=O)c1c(O)n(C)c2ccc(C)cc12` | -6.897 | 5.747 |
| `O=C(O)[C@@H]1CCN(C(=O)c2ccccn2)[C@@H]1c1ccc(F)cc1` | -0.2575 | 8.451 |
| `COc1ccc(CC(=O)N2CCC(c3nncn3C)CC2)cc1F` | -0.9925 | 11.29 |
| `COc1ccccc1CCNC(=O)CC1(Cn2cnnn2)CCCCC1` | -11.12 | 21.05 |
| `COCC(=O)N1C[C@@H]2OCCN(Cc3c(C)noc3C)[C@@H]2C1` | -25.5 | 11.76 |
| `CCCSCC(=O)N1CCCC(CO)(CCC)C1` (stereo not given) | -0.1726 | 13.25 |
| `Cc1cc(NCc2csc(-c3ccco3)n2)ccc1C(N)=O` | 8.169 | 2.632 |
| `O=C(c1cccc2c1OCCO2)N1CCCCC1Cn1cccn1` (stereo not given) | 1.658 | 3.306 |
| `Cc1nn(C)c(N2CCOCC2)c1CN[C@@H]1c2ccccc2C[C@@H]1O` | -7.989 | 13.56 |
| `Cc1nnc2n1CCN(C(C(N)=O)c1ccc(F)cc1)C2` (stereo not given) | -11.79 | 25.84 |
| `Cc1cc(C(=O)N2C[C@@H]3COC[C@]3(c3nnc(C)o3)C2)on1` | -37.24 | 12.33 |
| `Cc1cc(N(C)C)nc(NC2CCc3nc(C)nn3C2)n1` (stereo not given) | -11.75 | 21.92 |
| `CN(c1nc(CSc2nnc(Cn3cncn3)o2)cs1)C1CC1` | -6.115 | 10.75 |
| `CCN1CCn2c(C)cnc2C12CCN(C(=O)c1ccc(Cl)cc1)CC2` | -3.648 | 15.09 |
| `CN1C(=O)CC(C(=O)O)C12CCN(Cc1ccc(Cl)cc1F)CC2` (stereo not given) | -7.679 | 12.62 |
| `COc1cc(-c2n[nH]c(CCN)n2)cc(OC)c1OC` | -8.649 | 14.29 |
| `N#Cc1cccc(N2CCCC3(CN(C(=O)NC4CC4)CCO3)C2)c1` (stereo not given) | 4.667 | 16.24 |
| `CCCN(C)CC1CCN(c2ccc(Br)c(C)n2)C1` (stereo not given) | -2.194 | 1.299 |
| `O=C(NCc1cccc(Cl)c1)C1=NOC2(CCNC2)C1` (stereo not given) | -18.56 | 20 |
| `CCn1c(CC2CCN(C(=O)c3ccnn3C)CC2)n[nH]c1=O` | -34.54 | 23.08 |
| `O=C(NCCN1CCOCC1)c1ccc(-c2ccccc2)[nH]c1=O` | 12.19 | 2.667 |
| `CC(=O)N1CC(=O)N(c2cnn(C)c2)CC12CCN(Cc1ccco1)C2` (stereo not given) | -12.31 | 8.257 |
| `O=C(c1ccccc1Cl)N1CC[C@H](O)[C@@H](N2CCOCC2)CC1` | 1.248 | 21.74 |
| `Cn1cc(C(=O)CC2CCCN2C(=O)c2ccc3[nH]ncc3c2)cn1` (stereo not given) | -9.754 | 13.19 |
| `Cc1cc(CN2CCN(CC(O)C(C)(C)C)CC2)no1` (stereo not given) | -21.04 | 16.85 |
| `CN(C)S(=O)(=O)CCCOc1cccc(-n2ccnc2)c1` | -53.1 | 13.79 |
| `CS(=O)(=O)c1ccc(NC(=O)NC2(c3ccccc3)CCC2)cc1` | -9.624 | 14.58 |
| `CC(=O)c1ccc(NC(=O)N(CCN(C)C)Cc2ccc(C)s2)cc1` | -8.893 | 10 |
| `O=C(C1CC1)N1CCN(C(=O)C2CC(=O)N(c3ccccc3Br)C2)CC1` (stereo not given) | -26.41 | 0 |
| `CC1CCN(CCCNC(=O)c2ccc(N(C)S(C)(=O)=O)cc2Cl)CC1` | -10.34 | 5.882 |
| `O=C(c1cncs1)N1CCC(c2cnccn2)CC1` | -1.218 | -7.292 |
| `CC(C)(C)CC(=O)N1[C@@H](c2ccco2)[C@@H](CO)C[C@]12CCCCNC2=O` | 15.05 | 10.2 |
| `N#Cc1ccnc(N2CCN(C(=O)Cc3ccc4c(c3)CCO4)CC2)c1` | 3.851 | 15.2 |
| `O=C1CN(Cc2nnc(-c3ccc(Cl)cc3)o2)CCN1` | -23.63 | 18.18 |
| `Cc1cc(CN(C)C2CCCN(Cc3noc(C)n3)C2)on1` (stereo not given) | -17.13 | 11.57 |
| `NC(=O)N1CCC(NCc2cc(Br)ccc2Cl)CC1` | -28.01 | 9.639 |

For reference, 6 entries once more:

{"smiles": "CCN1CCN(C(=O)Cn2ncc3c2c(C)nn3C(C)C)CC1", "Pks13 thioesterase": -11.97, "LiHisRS": 9.735}
{"smiles": "O=C(c1cncs1)N1CCC(c2cnccn2)CC1", "Pks13 thioesterase": -1.218, "LiHisRS": -7.292}
{"smiles": "CN(c1nc(CSc2nnc(Cn3cncn3)o2)cs1)C1CC1", "Pks13 thioesterase": -6.115, "LiHisRS": 10.75}
{"smiles": "CN(C)c1nc2c(c(N(C)Cc3n[nH]c4c3CCCCC4)n1)CCNC2", "Pks13 thioesterase": -16.71, "LiHisRS": 22.95}
{"smiles": "N#Cc1cccc(N2CCCC3(CN(C(=O)NC4CC4)CCO3)C2)c1", "stereo": "stereo not given", "Pks13 thioesterase": 4.667, "LiHisRS": 16.24}
{"smiles": "CC(C)(C)CC(=O)N1[C@@H](c2ccco2)[C@@H](CO)C[C@]12CCCCNC2=O", "Pks13 thioesterase": 15.05, "LiHisRS": 10.2}